Each structure is given as a SMILES string. Some of the results follow. The main result of the screen is listed elsewhere. These columns were measured beside it and carry no call. Most of these compounds were active or inconclusive in the main read-out, so they are no random draw. The note in brackets gives the kind of curve behind each potency; many fits are weak.

A short description of this test: qHTS Assay for Modulators of Lamin A Splicing. The conditions noted are these: HeLa LMNA splicing GFP/RFP minigene ratio, 48 h. The procedure, abridged:
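S3 HeLa stable clones carrying a lamin A-EGFP splicing minigene plus DsRed2 were seeded at 600 cells/well in Opti-MEM with 2% FBS, pin-dosed and incubated 48 h at 37°C. Acumen cytometry (488 nm) gave the GFP/RFP total-intensity ratio.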

The mark [1] stands for this setting: measured here: GFP splicing reporter channel.
The mark [2] stands for this setting: measured here: RFP viability control channel.

For orientation: AC50 means the concentration at which the activity in the assay is half-maximal. Consider `Cc1cc(F)ccc1S(=O)(=O)Nc1ccccc1C(=O)Nc1ncn[nH]1`, for which the AC50 under setting [1] was 15.8 µM [rising, single point].

Regarding `CCOC(=O)N1CCN(C(=O)C2CCCN(Cc3nc(-c4ccc(Cl)cc4)oc3C)C2)CC1` (centres undefined), under setting [2], the AC50 is 12.6 µM [rising, partial curve].

On to `O=C(CN1CCCC(O)C1)N1c2ccccc2Sc2ccc(C(F)(F)F)cc21` (centres undefined), for which the AC50 under setting [2] is 31.6 µM [rising, single point].

In the case of `CCCCOc1ccc(C(=O)Nc2ccc3c(c2)CCCN3C(=O)c2cccs2)cc1`, the AC50 under setting [1] was 2.82 µM [falling, full curve].

As for `COc1ccc(-c2cc(C(F)F)n3ncc(C(=O)n4ccnc4C)c3n2)cc1`, under setting [1], the AC50 is 20 µM [falling, single point].

On to `COCCCNC(=O)c1cn(Cc2c(F)cccc2Cl)nn1`, for which the AC50 was 35.5 µM [falling, single point] under setting [1] and 35.5 µM [falling, single point] under setting [2].

As for `CC(C)(C)c1ccc(C(=O)CCCSC2=C(C#N)C(c3ccco3)C3=C(CCCC3=O)N2)cc1` (centres undefined), the AC50 by setting is: under setting [1], 12.6 µM [rising, partial curve, poor fit]; under setting [2], 15.8 µM [rising, partial curve].

For `CC(=O)c1ccc(NC(=O)CN(C)CC(=O)Nc2cccc(F)c2)cc1`, under setting [2], the AC50 was 2.24 µM [falling, full curve, poor fit].

Take `CCOC(=O)C1CCN(C(=O)c2ccccc2NC(=O)c2nsc3ccccc23)CC1`: the AC50 under setting [1] was 2.24 µM [rising, partial curve].

`CCc1ccc(Nc2nnc(SCc3cc(=O)n4ccsc4n3)s2)cc1`: the AC50 under setting [2] is 17.8 µM [rising, single point].

Turning to `Cc1ccnc(NC(=O)c2ccccc2NC(=O)C(C)(C)C)c1`, the AC50 under setting [2] is 20 µM [rising, single point].

As to `CCOc1ccc2c(c1)C(=NNC(=O)c1ccncc1)c1cc(OCC)ccc1-2`, the AC50 under setting [2] was 3.16 µM [rising, full curve].

As for `O=S(=O)(c1ccccc1)c1cnn(-c2ccccc2)c1-c1ccc(F)cc1`, the AC50 was 35.5 µM [rising, single point] under setting [1] and 35.5 µM [rising, single point] under setting [2].

For the compound `O=c1c2[nH]c3ccccc3c2ncn1C1CCCCC1`, the AC50 under setting [1] is 5.62 µM [rising, full curve, poor fit].

In the case of `COc1ccc(OCC(=O)Nc2nc3ccc(NC(C)=O)cc3s2)cc1`, the AC50 was 12.6 µM [falling, partial curve] under setting [1] and 11.2 µM [falling, partial curve] under setting [2].

For the compound `COc1ccc(C(=O)N[C@H](C(=O)N2CCN(c3ccccc3F)CC2)C(C)C)cc1`, the AC50 under setting [2] was 22.4 µM [rising, single point].

Turning to `CCN(CC)CCNC(=O)c1ccc(NC(=O)/C=C/c2cc(OC)c(OC)c(OC)c2)cc1`, the AC50 under setting [1] is 5.01 µM [falling, full curve, poor fit].

For `Nc1cc(N)nc(SCCOc2ccccc2)n1`, under setting [2], the AC50 was 12.6 µM [rising, single point].

As for `CCCCn1c(NC(=O)c2ccccc2)nc2ccccc21`, the AC50 reads like this: under setting [1], 35.5 µM [rising, single point]; under setting [2], 22.4 µM [rising, single point].

As to `CCN(CC(O)CON=C1c2ccccc2-c2ccccc21)S(=O)(=O)c1ccc(C)cc1` (centres undefined), the AC50 under setting [2] was 14.1 µM [rising, partial curve].

As for `COC(=O)c1sccc1NC(=S)Nc1ccccc1`, the AC50 under setting [2] was 0.0891 µM [rising, full curve, poor fit].

`COc1ccc(C)c2sc(NC(=O)c3ccc(S(=O)(=O)N(C)C)cc3)nc12`: under setting [2], the AC50 is 3.16 µM [rising, partial curve].

In the case of `O=C(N/N=C/c1c(Cl)[nH]c2ccccc12)c1sc2ccccc2c1Cl`, the AC50 under setting [1] is 35.5 µM [falling, single point].

For the compound `CN(C)c1ccc(-c2nnn(CC(=O)Nc3ccccc3N3CCOCC3)n2)cc1`, the AC50 was 12.6 µM [rising, partial curve] under setting [1] and 17.8 µM [rising, partial curve] under setting [2].

Take `Cc1noc(C)c1S(=O)(=O)N1CCCC(C(=O)NCCc2ccc(Cl)cc2)C1` (centres undefined): the AC50 under setting [2] was 20 µM [rising, single point].

As to `CC(C)CN(CC(C)C)C(=O)c1cccc(S(=O)(=O)N2CCc3ccccc32)c1`, the AC50 under setting [1] is 25.1 µM [falling, partial curve].

Consider `Cc1ccnc(NC(=O)Nc2ccc3c(c2)N(C)C(=O)CS3)c1`, for which the AC50 reads like this: under setting [1], 22.4 µM [falling, partial curve, poor fit]; under setting [2], 17.8 µM [falling, partial curve].

In the case of `COc1ccc(CN2C(=O)c3ccccc3C2C(=O)NC2CCCC(C)C2C)c(OC)c1` (centres undefined), the AC50 under setting [2] was 0.00631 µM [falling, partial curve, poor fit].

On to `COc1ccc(Oc2cc(C)c3ccccc3n2)cc1`, for which the AC50 by setting is: under setting [1], 15.8 µM [rising, single point]; under setting [2], 12.6 µM [rising, single point].

On to `Cc1cc(C)c(C)c(N=Nc2nc3ccccc3n2C)c1C`, for which the AC50 is, setting by setting: under setting [1], 35.5 µM [rising, single point]; under setting [2], 22.4 µM [rising, single point].

Turning to `Cc1ccc(CNC(=O)c2ccc(N3CCCC3)c(NC(=O)Nc3ccc(C)cc3)c2)cc1`, the AC50 runs as follows: under setting [1], 14.1 µM [falling, single point]; under setting [2], 25.1 µM [falling, partial curve, poor fit].

Take `C=CCc1cccc(/C=N/n2cnnc2)c1O`: under setting [2], the AC50 is 4.47 µM [rising, single point].

Regarding `O=C(N/N=C/c1cn(-c2ccccc2)nc1-c1cccnc1)c1cccnc1`, under setting [2], the concentration at half-maximal activity (AC50) is 14.1 µM [rising, partial curve, poor fit].

Regarding `Cc1ccc(C2C3=C(CC(C)(C)CC3=O)N=C3c4ccccc4C(=O)C32)cc1` (centres undefined), the AC50 under setting [2] is 14.1 µM [rising, partial curve].

Regarding `Cc1c(C(=O)Nc2ccccc2)sc2nc(-c3ccccc3)cn12`, the AC50 under setting [2] is 10 µM [rising, partial curve, poor fit].

Take `C/C(=N\NC(N)=S)C12CC3CC(CC(C3)C1)C2`: the AC50 under setting [1] was 11.2 µM [rising, partial curve].

On to `CN(Cc1cn(-c2ccccc2)nc1-c1ccc(Cl)cc1)C(=O)CCC(=O)O`, for which the AC50 under setting [1] was 8.91 µM [rising, single point].

`CC(=O)C1=C(C)Nc2ncnn2C1c1cccc(OCc2ccccc2)c1` (centres undefined): under setting [2], the AC50 is 35.5 µM [rising, single point].

On to `COC(=O)c1ccc(Oc2ccc(C(F)(F)F)cn2)cc1`, for which the AC50 under setting [2] is 0.00355 µM [falling, full curve, poor fit].

In the case of `Cc1ccc(-c2nnc(N3CCOCC3)c3ccccc23)cc1S(=O)(=O)NCC1CCCO1` (centres undefined), the AC50 under setting [1] is 12.6 µM [rising, single point] and the AC50 under setting [2] is 22.4 µM [rising, single point].

On to `CC(C(=O)N1CCN(C2c3ccccc3-c3ccccc32)CC1)N1C(=O)c2ccccc2C1=O` (centres undefined), for which the AC50 under setting [2] is 10 µM [rising, partial curve].

For the compound `O=[N+]([O-])c1nn(-c2ccccc2)n(O)c1=NC1CCN(Cc2ccccc2)CC1`, the AC50 under setting [2] was 3.16 µM [falling, single point].

`CC(C)[C@H](NC(=O)OC(C)(C)C)c1nnc(SCc2cccc(F)c2)o1`: under setting [2], the half-maximal activity concentration (AC50) was 11.2 µM [rising, single point].

Take `c1ccc(Cn2c(-c3cncs3)nc3ccccc32)cc1`: the AC50 under setting [2] is 35.5 µM [rising, single point].

With `COc1ccc(-n2c(C)cc(C(=O)Cn3c(NCCO)nc4ccccc43)c2C)cc1`, the AC50 is 31.6 µM [rising, single point] under setting [1] and 31.6 µM [rising, single point] under setting [2].

On to `O=c1cc(CSc2nnc(-c3cccs3)n2Cc2ccccc2)nc2sc3ccccc3n12`, for which the AC50 reads like this: under setting [1], 0.178 µM [rising, full curve, poor fit]; under setting [2], 0.631 µM [rising, full curve].

For the compound `CCc1ccc(Nc2ccc(C(N)=O)cc2[N+](=O)[O-])cc1`, the AC50 is 35.5 µM [rising, single point] under setting [1] and 22.4 µM [rising, single point] under setting [2].

Take `CC1(C)Oc2ccc3ccc(=O)oc3c2-c2cn[nH]c21`: under setting [2], the AC50 is 31.6 µM [rising, single point].

For the compound `O=C(Nc1nc(-c2cccnc2)cs1)c1ccc(S(=O)(=O)N2CCOCC2)cc1`, the AC50 reads like this: under setting [1], 5.62 µM [rising, full curve, poor fit]; under setting [2], 10 µM [rising, partial curve].

For `COc1ccc2ccccc2c1C1CC(=O)N2CN(Cc3ccco3)CSC2=C1C#N` (centres undefined), the half-maximal activity concentration (AC50) under setting [1] was 35.5 µM [rising, single point].

As to `O=C(O)c1cc(=O)c2ccc(Cl)cc2[nH]1`, the concentration at half-maximal activity (AC50) under setting [1] was 0.00398 µM [falling, full curve, poor fit] and the AC50 under setting [2] was 0.00178 µM [falling, full curve, poor fit].

As to `O=C(NCCSc1c[nH]c2ccccc12)c1ccc(Br)o1`, the concentration at half-maximal activity (AC50) under setting [2] is 35.5 µM [rising, single point].

For `C=CCN(C(=O)CSc1nc2[nH]ncc2c(=O)n1-c1ccccc1OC)c1ccccc1`, the AC50 under setting [2] is 35.5 µM [rising, single point].

`O=C(Cn1nc(C(F)(F)F)c2c1CCCC2)Nc1cccc(Cl)c1`: the concentration at half-maximal activity (AC50) is 0.00316 µM [rising, full curve, poor fit] under setting [1] and 28.2 µM [rising, partial curve, poor fit] under setting [2].

On to `C=CCc1cc(C=O)cc(OC)c1OCc1c(Cl)cccc1Cl`, for which, under setting [1], the AC50 was 0.0251 µM [falling, partial curve].

For the compound `FC(F)(F)c1cccc(N2CCN(c3ncnc4c3nc3n4CCCC3)CC2)c1`, under setting [1], the half-maximal activity concentration (AC50) is 0.0501 µM [falling, full curve, poor fit].

With `CCN(CCCNC(=O)COc1cc(=O)n(CC)c2ccccc12)Cc1ccccc1`, under setting [2], the AC50 is 11.2 µM [rising, partial curve].

(Values after PubChem BioAssay AID1487 (National Center for Advancing Translational Sciences (NCATS), 2009).)
